Reference: patent publication US10064926B2, “Peptides and combination of peptides for use in immunotherapy against hepatocellular carcinoma (HCC) and other cancers” (Immatics biotechnologies GmbH, priority 2014, dated 2018)

Columns and labels:
[1] = test system: tumor samples of other tumor types; test: Over-presentation of peptides on additional tumor types versus normal tissues (LC-MS); set-up: species or system human; conditions: for Additional Entities (additional tumor types on which the peptide was found over-presented) / Other relevant organs/diseases (additional tumor types on which the peptide was found over-presented): over-presentation on more than 5% of the measured tumor samples, or presentation on more than 5% with ratio of geometric means tumor vs normal tissues larger than 3
[2] = test system: primary HCC tissue samples; test: Identification and label-free LC-MS relative quantitation of HLA-presented peptides (presentation profiles/scores), HCC versus normal tissues; set-up: species or system human; key to PeptidePresentation (presentation score): very highly over-presented on tumors compared to a panel of normal tissues (+++); highly over-presented on tumors compared to a panel of normal tissues (++); over-presented on tumors compared to a panel of normal tissues (+); conditions: for PeptidePresentation (presentation score): HCC tumors compared to a panel of normal tissues
[3] = FIG. 1, only samples on which the peptide was presented

| Substance | Additional Entities (additional tumor types on which the peptide was found over-presented) [1] | Other relevant organs/diseases (additional tumor types on which the peptide was found over-presented) [1] | PeptidePresentation (presentation score) [2] | number of cancer tissues on which the peptide was presented [1, 3] | number of normal tissues on which the peptide was presented [1, 3] | number of other disease samples on which the peptide was presented ([1]; FIG. 1M, encephalocele) | over-presentation in HCC compared with normal tissues ([2]; FIG. 1 presentation profiles) |
| --- | --- | --- | --- | --- | --- | --- | --- |
| 6 (KLSPTVVGL; listed as Homo sapiens) [compound 6] | CLL, OC | Colon, Rectum | +++ |  |  |  |  |
| 8 (KLLEEATISV; listed as Homo sapiens) [compound 8] | SCLC, MCC, Melanoma, Urinary bladder cancer, Uterine Cancer |  | + |  |  |  |  |
| 9 (ALANQKLYSV; listed as Homo sapiens) [compound 9] | NSCLC, CRC, MCC, OC, Urinary bladder cancer, Gallbladder Cancer, Bile Duct Cancer, PC |  | + |  |  |  |  |
| 14 (ALADLTGTVV; listed as Homo sapiens) [compound 14] | NSCLC, SCLC, BRCA, OC, Esophageal Cancer, Urinary bladder cancer, Uterine Cancer, PC | Kidney, Brain, Pancreas | +++ |  |  |  |  |
| 15 (LLYGHTVTV; listed as Homo sapiens) [compound 15] | NSCLC, SCLC, BRCA, Melanoma, OC, Esophageal Cancer, Urinary bladder cancer, NHL, PC | Kidney, Brain, Colon, Rectum, Pancreas | + |  |  |  |  |
| 16 (SLLGGNIRL; listed as Homo sapiens) [compound 16] | GC, PrC, Esophageal Cancer, Urinary bladder cancer, Uterine Cancer, PC | Brain, Colon, Rectum | ++ |  |  |  |  |
| 17 (RVASPTSGV; listed as Homo sapiens) [compound 17] | AML | Brain | + |  |  |  |  |
| 22 (RIAGIRGIQGV; listed as Homo sapiens) [compound 22] | NSCLC, PrC, BRCA, OC, NHL | Kidney, Colon, Rectum | +++ |  |  |  |  |
| 23 (RLYDPASGTISL; listed as Homo sapiens) [compound 23] | CLL, Melanoma, NHL |  | + |  |  |  |  |
| 24 (SLAEEKLQASV; listed as Homo sapiens) [compound 24] | PrC, BRCA, Urinary bladder cancer |  | +++ |  |  |  |  |
| 26 (SLLHTIYEV; listed as Homo sapiens) [compound 26] | PrC, BRCA, Esophageal Cancer, NHL | Colon, Rectum | +++ |  |  |  |  |
| 30 (YLGEGPRMV; listed as Homo sapiens) [compound 30] | NSCLC, Melanoma, Urinary bladder cancer, Uterine Cancer, Gallbladder Cancer, Bile Duct Cancer | Colon, Rectum, CLL | ++ |  |  |  |  |
| 32 (ALNAVRLLV; listed as Homo sapiens) [compound 32] | SCLC |  | +++ |  |  |  |  |
| 34 (SLAEGTATV; listed as Homo sapiens) [compound 34] |  | Colon, Rectum | +++ |  |  |  |  |
| 38 (ALADVVHEA; listed as Homo sapiens) [compound 38] | BRCA, OC |  | + |  |  |  |  |
| 47 (FLDTPIAKV; listed as Homo sapiens) [compound 47] | NSCLC, GC, Esophageal Cancer | Brain, Colon, Rectum | + | 35 | 2 | 1 | over-presentation |
| 51 (GLAEELVRA; listed as Homo sapiens) [compound 51] |  | Brain | + |  |  |  |  |
| 52 (GLFNAELLEA; listed as Homo sapiens) [compound 52] | SCLC |  | + |  |  |  |  |
| 53 (GLIHLEGDTV; listed as Homo sapiens) [compound 53] |  |  | +++ |  |  |  |  |
| 54 (GLLDPNVKSIFV; listed as Homo sapiens) [compound 54] | SCLC, SCLC, OC, Urinary bladder cancer | Kidney, Brain | +++ |  |  |  |  |
| 55 (GLYGRTIEL; listed as Homo sapiens) [compound 55] | SCLC | Kidney | + |  |  |  |  |
| 56 (GVLPGLVGV; listed as Homo sapiens) [compound 56] |  |  | + |  |  |  |  |
| 57 (HLTEAIQYV; listed as Homo sapiens) [compound 57] | NHL |  | ++ |  |  |  |  |
| 58 (ILADLNLSV; listed as Homo sapiens) [compound 58] | BRCA | Pancreas | + |  |  |  |  |
| 59 (ILADTFIGV; listed as Homo sapiens) [compound 59] | NSCLC, SCLC, GC, OC, Urinary bladder cancer, Gallbladder Cancer, Bile Duct Cancer, NHL | Colon, Rectum, Pancreas | ++ |  |  |  |  |
| 71 (KLLDNWDSV; listed as Homo sapiens) [compound 71] |  |  | +++ |  |  |  |  |
